# Results as given in PubChem BioAssay AID540256 (National Center for Advancing Translational Sciences (NCATS), 2011).
# Screen size: about 300,000 compounds; about 3,700 (1.2%) were called active. The shares of active, inactive and inconclusive entries below differ from those in the screen. Calls follow the shape of the full dose curve; tested in HEK293 cells. Potencies of inconclusive entries are doubtful fits and often do not repeat.
# Test: qHTS for Inhibitors of binding or entry into cells for Lassa Virus; also: nearly all actives have a fitted effect of over 50% in size
# Details: Lassa virus pseudotype entry inhibition, cell reporter; series mostly up to 37.9 µM
# Potency is read from the fitted curve at half-maximal effect.
row,SMILES,Potency
1,CSC(=Nc1ccccc1)C(C#N)c1nc2ccccc2[nH]1 (configuration not stated),"inconclusive: 6.31 µM [inhibitor, full curve]"
2,CN(C)c1ccc(-c2nc(-c3ccccn3)no2)cc1[N+](=O)[O-],"inconclusive: 6.31 µM [inhibitor, single point]"
3,CCCCN(C/C=C/c1ccccc1OC)Cc1ccccc1,inactive
4,COc1cc(NCCC(=O)c2cccs2)c(OC)cc1Cl,"inconclusive: 15.8 µM [inhibitor, single point]"
5,c1ccc(Nc2nc(N3CCCCC3)nc(N3CCNCC3)n2)cc1,"inconclusive: 5.8 µM [inhibitor, partial curve, poor fit]"
6,Cc1sc2nc(CN(C(=O)NCc3ccccc3)C3CCCC3)[nH]c(=O)c2c1C,"inconclusive: 8.91 µM [inhibitor, partial curve, poor fit]"
7,Cc1cc(-c2ccc(C)c(S(=O)(=O)N3CCN(c4ccc([N+](=O)[O-])cc4)CC3)c2)on1,"inconclusive: 6.31 µM [inhibitor, partial curve, poor fit]"
8,COc1ccc(-n2cc(CN(C)Cc3n[nH]c(=O)[nH]3)c(-c3cccc(F)c3)n2)cc1,"inconclusive: 0.794 µM [inhibitor, partial curve, poor fit]"
9,COc1ccc(S(=O)(=O)N(CC(=O)NC2CC3CCC2C3)c2ccccc2OC)cc1 (configuration not stated),"inconclusive: 17.8 µM [inhibitor, single point]"
10,COc1ccc(Cn2c(=O)[nH]c3cc(C(=O)Nc4ccc(N5CCN(C)CC5)cc4)ccc32)cc1,inactive
11,COc1ccc(OCC(=O)Nc2cccc(-c3nc4ccccc4[nH]3)c2)cc1,inactive
12,COc1ccc(CCN(C)C(=O)CN2C(=O)NC3(CCCc4ccccc43)C2=O)cc1OC (configuration not stated),"inconclusive: 0.447 µM [activator, partial curve, poor fit]"
13,CCCc1ccc(Oc2c(-c3ccc(O)c(C)c3O)n[nH]c2C)cc1,"inconclusive: 16.4 µM [inhibitor, partial curve, poor fit]"
14,CC1(C)Cc2c(C#N)c(SCC(=O)O)nc(N3CCOCC3)c2CO1,inactive
15,Cc1cccc(C(=O)NC(=S)NNC(=O)c2ccc(Cl)cc2)c1,"inconclusive: 10 µM [inhibitor, partial curve, poor fit]"
16,C=CCN(c1ccccc1OC)S(=O)(=O)c1cccc(C(=O)OCC(=O)N2CC(C)OC(C)C2)c1 (configuration not stated),"inconclusive: 15.8 µM [inhibitor, partial curve]"
17,O=c1c2ccccc2nc(/C=C/c2ccccc2)n1-c1ccc(O)cc1,"inconclusive: 10 µM [inhibitor, partial curve]"
18,O=C(NC1=NCCS1)c1cc(-c2ccc(-c3ccccc3)cc2)nc2ccccc12,"inconclusive: 25.9 µM [inhibitor, single point]"
19,CCCn1c(C)cc(C=O)c1C,inactive
20,Cc1cc(C)n2nc(CNC(=O)c3cccc(Cl)c3)nc2n1,inactive
21,O=c1c2cc(N3CCOCC3)ccc2[nH]c(=S)n1Cc1ccccc1Cl,inactive
22,COc1cc(NC(=O)Nc2ccccc2)c(OC)cc1NC(=O)CN1CCCCC1,inactive
23,O=C(N1CCCCC1)N1CCN(C(=O)N(c2ccccc2)c2ccccc2)CC1,"inconclusive: 16.4 µM [inhibitor, partial curve, poor fit]"

row,SMILES,Potency
1,O=S(=O)(NCC(Nc1ccc(Cl)cc1)c1ccccc1)c1ccccc1 (configuration not stated),"inconclusive: 8.91 µM [inhibitor, partial curve]"
2,CC(C)Cn1c(-c2cc([N+](=O)[O-])ccc2Cl)nc2c1c(=O)[nH]c(=O)n2Cc1ccccc1,"inconclusive: 14.1 µM [inhibitor, single point]"
3,COC(=O)C1=C[C@H]([C@@H](C)[C@H](OC)c2ccccc2Br)[C@H]2[C@H]1c1ccccc1N2C,"inconclusive: 0.944 µM [inhibitor, full curve, poor fit]"
4,COC(=O)c1cccc(-n2cnnn2)c1,inactive
5,COc1cc(/C=N/NC(=O)c2cc(-c3ccccc3)sc2N)cc(OC)c1OC,active: 15.8 µM
6,COC(=O)/C=C/COc1ccccc1[N+](=O)[O-],inactive
7,O=C(NC1CC1)C1CCN(Cc2cnn(-c3ccccc3)c2-n2cccc2)CC1,"inconclusive: 18.3 µM [activator, partial curve, poor fit]"
8,O=C(CSc1nc2c([nH]c3ccccc32)c(=O)n1-c1ccc(Cl)cc1)N1CCCC1,inactive
9,CCn1c(SCC(=O)c2ccccc2)nc2ccccc2c1=O,inactive
10,Cc1cc(C)c(NC(=O)COc2ccc3c(C)cc(=O)oc3c2)c(C)c1,inactive
11,O=C(CSc1nnc(-c2ccccc2Cl)o1)Nc1ccc2c(c1)OCCO2,"inconclusive: 32.6 µM [activator, partial curve, poor fit]"
12,CCOc1ccc(-c2cc(NC(=O)c3c(F)cccc3F)c(C(=O)O)s2)cc1,"inconclusive: 20 µM [inhibitor, single point]"
13,Cc1noc(C)c1CSCC(=O)Nc1nc(-c2ccc(F)c(F)c2)cs1,"inconclusive: 11.2 µM [inhibitor, partial curve, poor fit]"
14,COc1ccc(OC)c(CCNC(=O)c2c3c(nc4ccccc24)C(=O)N(C2CCCCC2)C3)c1,"inconclusive: 39.8 µM [inhibitor, partial curve, poor fit]"
15,O=C(O)CCCSc1nccn1-c1ccccc1,inactive
16,COC(=O)c1ccc(CSc2nc3ccc(C)cc3[nH]2)o1,inactive
17,COc1cc(C(C(=O)NC2CCCCC2)N(C(=O)c2snc(C(N)=O)c2N)c2ccc(C)cc2)ccc1O (configuration not stated),"inconclusive: 11.2 µM [inhibitor, partial curve]"
18,Cc1cc(C)cc(NC(=S)N2CCN(c3ncc(C(F)(F)F)cc3Cl)CC2)c1,"inconclusive: 35.5 µM [inhibitor, single point]"
19,Cc1ccc(NC(=O)c2ccccc2NS(=O)(=O)c2ccc(Cl)s2)cc1,"inconclusive: 12.6 µM [inhibitor, partial curve, poor fit]"
20,Cc1ccccc1C(=O)OCCN(C)Cc1ccccc1,"inconclusive: 6.31 µM [inhibitor, single point]"
21,O=C(Nc1ccc(F)cc1F)c1ccccc1-c1ccccc1,"inconclusive: 12.6 µM [inhibitor, partial curve, poor fit]"
22,C=CCn1c(=N)n(CC(=O)c2ccccc2)c2ccccc21,"inconclusive: 3.55 µM [inhibitor, single point]"
23,COC(=O)c1cc(C(=O)OCC(=O)NCc2ccc3c(c2)OCO3)cc([N+](=O)[O-])c1,"inconclusive: 3.16 µM [activator, partial curve, poor fit]"

row,SMILES,Potency
1,COc1ccccc1NC(=O)C1=C(C)Nc2nc(SCc3ccccc3)nn2C1c1cccnc1 (configuration not stated),"inconclusive: 35.5 µM [inhibitor, single point]"
2,O=C(Nc1ccccc1)C1CCN(S(=O)(=O)c2ccc3[nH]c4c(c3c2)CCCCC4)CC1,"inconclusive: 35.5 µM [inhibitor, single point]"
3,Cc1ccc(-c2csc(NC(=O)CSc3nc4ccccc4c(=O)n3CCCN(C)C)n2)cc1,"inconclusive: 35.5 µM [inhibitor, single point]"
4,COCCCNC(=O)Cn1nnc(-c2ccccc2NC(=O)c2ccc(F)cc2)n1,"inconclusive: 13 µM [activator, partial curve, poor fit]"
5,COc1ccc(CCNC(=O)CCn2c(=O)c3ccccc3n(CC(=O)Nc3ccc(C)cc3C)c2=O)cc1OC,inactive
6,CCc1c(C)sc2c1CCN(C(=O)Nc1ccc(F)c(Cl)c1)C2c1ccc(F)cc1 (configuration not stated),"inconclusive: 35.5 µM [inhibitor, single point]"
7,CC1Cc2ccccc2N1Cc1cc(=O)c(OCC(=O)Nc2ccccc2)co1 (configuration not stated),inactive
8,CC1CCN(c2oc(/C=C/c3ccc(F)cc3)nc2C#N)CC1,inactive
9,CC(=O)N(/N=C1\Sc2ccccc2C1=O)c1ccccc1,"inconclusive: 0.708 µM [activator, full curve, poor fit]"
10,COc1cccc(C(=O)Nc2cccc(-c3nc4ncccc4o3)c2C)c1,inactive
11,O=C(NC(=S)NCc1cccnc1)c1cc2ccccc2o1,"inconclusive: 4.47 µM [activator, partial curve, poor fit]"
12,COc1ccc(NC(=O)OC(C)C)cc1,"inconclusive: 10 µM [inhibitor, partial curve, poor fit]"
13,CC(C)c1ccc(OCC(=O)NC2=NCCS2)cc1,"inconclusive: 15.8 µM [activator, partial curve, poor fit]"
14,O=C(CCc1nnc2ccc(NCc3ccccc3Cl)nn12)NC1CCCCC1,"inconclusive: 25.1 µM [activator, single point]"
15,CC1(C)CC(=O)C2=C(C1)c1c(ccc3ccccc13)NC2c1ccc(Br)o1 (configuration not stated),"inconclusive: 35.5 µM [inhibitor, single point]"
16,O=C(Cn1c(SCC(=O)N2CCc3ccccc32)nc2ccccc21)NC1CCCC1,"inconclusive: 35.5 µM [inhibitor, single point]"
17,COCCn1c(C)cc(/C=C2/NC(=O)N(Cc3ccc(C)cc3)C2=O)c1C,inactive
18,CCCCCCCCCn1c2c(c(=N)c3c1CCC3)CCC2,active: 1.41 µM
19,Cc1ccc2c(CC(=O)NCc3ccco3)coc2c1C,inactive
20,CCN(CC)CCn1c2c(c(SCC(=O)Nc3nc4ccccc4s3)nc1=O)CCCC2,"inconclusive: 0.1 µM [activator, full curve, poor fit]"
21,O=C(NC(=O)c1ccccc1O)c1ccc(C(F)(F)F)cc1,"inconclusive: 35.5 µM [inhibitor, single point]"

# Three entries picked at random from the list so far:
row,SMILES,Potency
10,COc1cccc(C(=O)Nc2cccc(-c3nc4ncccc4o3)c2C)c1,inactive
13,CC(C)c1ccc(OCC(=O)NC2=NCCS2)cc1,"inconclusive: 15.8 µM [activator, partial curve, poor fit]"
1,COc1ccccc1NC(=O)C1=C(C)Nc2nc(SCc3ccccc3)nn2C1c1cccnc1 (configuration not stated),"inconclusive: 35.5 µM [inhibitor, single point]"
